Results reported in paper PMC6713762.
Results are given in words; binding and its absence hold for the method and conditions named. In cells and extracts the contact can be indirect. Some binding calls cover weakened binding; strength is not graded here.

Chains of the proteins cited; added tags and fusions are not shown. Lines headed by an entry give the natural chain unless they say otherwise; changes in a name come on top. Residues count along the entry.
UniProt Q15796: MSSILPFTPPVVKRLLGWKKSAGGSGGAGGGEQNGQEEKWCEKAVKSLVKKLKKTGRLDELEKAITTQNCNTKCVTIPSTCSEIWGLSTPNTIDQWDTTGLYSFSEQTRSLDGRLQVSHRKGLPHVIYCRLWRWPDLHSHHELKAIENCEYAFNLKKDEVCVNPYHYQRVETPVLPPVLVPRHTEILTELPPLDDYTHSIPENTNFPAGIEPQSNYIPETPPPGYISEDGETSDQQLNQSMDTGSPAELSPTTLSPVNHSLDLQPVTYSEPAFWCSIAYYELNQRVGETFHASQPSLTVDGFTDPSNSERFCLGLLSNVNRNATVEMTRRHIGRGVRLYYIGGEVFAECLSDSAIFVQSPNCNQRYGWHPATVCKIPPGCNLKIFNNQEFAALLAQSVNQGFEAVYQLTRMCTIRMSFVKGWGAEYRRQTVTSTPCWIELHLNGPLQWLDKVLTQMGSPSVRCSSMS
GFP-Smad2/C (266–467): residues 266-467 of Q15796
GST-Smad2/MH2: residues 274-467 of Q15796
UniProt P84022: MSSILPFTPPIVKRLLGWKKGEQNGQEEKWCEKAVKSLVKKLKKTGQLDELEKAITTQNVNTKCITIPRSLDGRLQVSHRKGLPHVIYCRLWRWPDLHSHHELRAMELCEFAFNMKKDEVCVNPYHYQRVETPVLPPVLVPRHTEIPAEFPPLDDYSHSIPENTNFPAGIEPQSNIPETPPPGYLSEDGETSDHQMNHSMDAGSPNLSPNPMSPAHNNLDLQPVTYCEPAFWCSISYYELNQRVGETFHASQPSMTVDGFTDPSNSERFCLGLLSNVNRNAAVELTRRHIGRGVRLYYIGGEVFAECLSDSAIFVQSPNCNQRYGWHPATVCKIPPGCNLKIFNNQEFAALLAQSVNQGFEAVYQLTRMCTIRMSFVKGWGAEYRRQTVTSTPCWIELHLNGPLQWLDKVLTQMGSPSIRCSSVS
UniProt Q13485: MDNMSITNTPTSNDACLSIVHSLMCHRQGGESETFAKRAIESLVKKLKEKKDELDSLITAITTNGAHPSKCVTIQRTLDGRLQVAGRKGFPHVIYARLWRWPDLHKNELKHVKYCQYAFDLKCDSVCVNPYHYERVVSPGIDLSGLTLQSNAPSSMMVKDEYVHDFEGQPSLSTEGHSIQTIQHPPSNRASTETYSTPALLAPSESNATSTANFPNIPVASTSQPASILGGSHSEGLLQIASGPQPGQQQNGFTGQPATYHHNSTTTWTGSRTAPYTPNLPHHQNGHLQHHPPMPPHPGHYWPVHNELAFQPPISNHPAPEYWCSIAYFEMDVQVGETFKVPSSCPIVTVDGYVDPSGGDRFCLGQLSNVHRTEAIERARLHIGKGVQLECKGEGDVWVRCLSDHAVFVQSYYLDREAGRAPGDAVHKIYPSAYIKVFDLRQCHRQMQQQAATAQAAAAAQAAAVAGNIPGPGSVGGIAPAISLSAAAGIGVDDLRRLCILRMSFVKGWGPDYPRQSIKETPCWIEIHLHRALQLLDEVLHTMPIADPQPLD
UniProt Q09472: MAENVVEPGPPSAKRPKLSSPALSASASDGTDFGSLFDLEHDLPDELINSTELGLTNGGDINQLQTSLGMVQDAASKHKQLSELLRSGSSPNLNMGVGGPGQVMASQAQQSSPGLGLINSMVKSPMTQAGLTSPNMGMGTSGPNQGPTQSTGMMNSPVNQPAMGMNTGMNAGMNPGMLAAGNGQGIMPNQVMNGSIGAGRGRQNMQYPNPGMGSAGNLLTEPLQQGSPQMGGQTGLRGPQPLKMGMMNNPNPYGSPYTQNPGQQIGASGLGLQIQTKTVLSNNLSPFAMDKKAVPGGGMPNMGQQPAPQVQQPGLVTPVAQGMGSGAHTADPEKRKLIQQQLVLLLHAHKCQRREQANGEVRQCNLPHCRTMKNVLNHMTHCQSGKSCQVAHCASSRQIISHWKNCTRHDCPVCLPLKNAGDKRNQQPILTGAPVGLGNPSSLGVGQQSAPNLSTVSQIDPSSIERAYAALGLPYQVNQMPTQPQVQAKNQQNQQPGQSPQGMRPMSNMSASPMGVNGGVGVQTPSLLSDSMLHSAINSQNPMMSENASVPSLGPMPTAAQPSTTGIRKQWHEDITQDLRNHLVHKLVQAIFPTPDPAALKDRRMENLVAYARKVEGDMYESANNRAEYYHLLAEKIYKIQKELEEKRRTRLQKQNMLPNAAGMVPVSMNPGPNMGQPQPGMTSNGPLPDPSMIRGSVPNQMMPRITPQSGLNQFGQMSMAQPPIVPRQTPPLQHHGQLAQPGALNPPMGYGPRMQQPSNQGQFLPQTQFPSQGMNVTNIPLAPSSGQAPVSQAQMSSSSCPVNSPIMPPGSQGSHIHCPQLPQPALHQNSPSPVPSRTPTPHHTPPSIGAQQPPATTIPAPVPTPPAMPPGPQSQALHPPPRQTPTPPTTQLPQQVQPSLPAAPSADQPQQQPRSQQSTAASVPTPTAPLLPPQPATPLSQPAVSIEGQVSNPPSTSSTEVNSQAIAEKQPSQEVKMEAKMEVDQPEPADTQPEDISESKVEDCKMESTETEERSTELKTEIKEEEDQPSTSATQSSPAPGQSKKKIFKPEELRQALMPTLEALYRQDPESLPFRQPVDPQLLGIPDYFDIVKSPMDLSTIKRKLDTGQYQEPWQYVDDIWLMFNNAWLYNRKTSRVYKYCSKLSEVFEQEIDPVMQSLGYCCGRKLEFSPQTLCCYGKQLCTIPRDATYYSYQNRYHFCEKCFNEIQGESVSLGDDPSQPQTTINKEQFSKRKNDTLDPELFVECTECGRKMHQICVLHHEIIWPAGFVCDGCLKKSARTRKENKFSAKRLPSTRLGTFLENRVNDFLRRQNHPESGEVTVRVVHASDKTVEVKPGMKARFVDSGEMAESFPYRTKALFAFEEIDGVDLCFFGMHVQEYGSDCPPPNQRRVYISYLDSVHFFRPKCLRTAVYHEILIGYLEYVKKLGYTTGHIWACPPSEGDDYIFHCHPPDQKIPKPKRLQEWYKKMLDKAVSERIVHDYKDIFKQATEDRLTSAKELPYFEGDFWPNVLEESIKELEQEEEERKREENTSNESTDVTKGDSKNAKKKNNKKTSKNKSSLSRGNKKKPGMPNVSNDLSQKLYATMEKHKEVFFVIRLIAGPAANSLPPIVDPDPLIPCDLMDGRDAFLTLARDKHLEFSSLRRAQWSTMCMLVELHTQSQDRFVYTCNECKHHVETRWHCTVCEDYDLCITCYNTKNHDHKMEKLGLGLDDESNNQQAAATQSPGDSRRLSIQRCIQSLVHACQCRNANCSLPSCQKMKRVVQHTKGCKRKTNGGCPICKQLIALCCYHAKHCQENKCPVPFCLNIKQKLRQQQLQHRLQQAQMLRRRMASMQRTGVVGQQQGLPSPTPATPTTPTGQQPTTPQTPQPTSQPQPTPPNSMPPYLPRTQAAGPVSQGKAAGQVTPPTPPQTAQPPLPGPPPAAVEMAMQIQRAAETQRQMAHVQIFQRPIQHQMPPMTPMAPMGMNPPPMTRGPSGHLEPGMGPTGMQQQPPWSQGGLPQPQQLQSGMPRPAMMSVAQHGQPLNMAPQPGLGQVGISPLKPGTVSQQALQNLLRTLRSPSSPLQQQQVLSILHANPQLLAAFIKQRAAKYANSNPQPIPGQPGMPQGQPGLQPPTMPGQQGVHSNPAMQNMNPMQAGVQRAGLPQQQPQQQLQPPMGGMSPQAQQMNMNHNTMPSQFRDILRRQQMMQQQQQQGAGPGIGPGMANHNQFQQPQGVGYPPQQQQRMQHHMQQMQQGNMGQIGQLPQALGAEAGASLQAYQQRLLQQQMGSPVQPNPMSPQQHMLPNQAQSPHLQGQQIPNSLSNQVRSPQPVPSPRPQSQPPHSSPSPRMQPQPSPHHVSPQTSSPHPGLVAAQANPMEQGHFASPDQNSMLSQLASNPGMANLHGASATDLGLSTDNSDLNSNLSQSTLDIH

Tests used:
GST-Smad2/MH2 = GST-Smad2/MH2 (UniProt Q15796); experiment: pull-down; total cell lysates of HepG2 or Huh6 expressing GFP-GREB1 incubated 1 h with 20 μg GST fusion bound to glutathione-Sepharose beads; washed three times with lysis buffer; only the target purified
GFP-Smad2/C (266–467) = GFP-Smad2/C (266–467) (UniProt Q15796); experiment: co-IP; lysates of X293T cells expressing the tagged proteins, immunoprecipitated with anti-GFP antibody; lysis buffer 10 mM Tris-HCl pH 7.4, 140 mM NaCl, 5 mM EDTA, 1% NP40
[1] = target: Smad2 (endogenous, HepG2) (human (endogenous in HepG2)) (UniProt Q15796); experiment: co-IP; endogenous proteins; HepG2 lysates (control or GREB1 siRNA) immunoprecipitated with anti-Smad2/3 antibody; lysis buffer 10 mM Tris-HCl pH 7.4, 140 mM NaCl, 5 mM EDTA, 1% NP40
[2] = target: Smad3 (endogenous, HepG2) (human (endogenous in HepG2)) (UniProt P84022); experiment: as above

Smad4 (endogenous, HepG2) (from UniProt Q13485 1-552)
binding (GST-Smad2/MH2): binds

p300 (co-precipitated with GFP-Smad2/C) (from UniProt Q09472 1-2414)
binding (GFP-Smad2/C (266–467)): binds

p300 (endogenous, HepG2) (from UniProt Q09472 1-2414)
binding [1]: binds
binding [2]: binds
